Source: publication PMC7343708, “Molecular Dynamics to Elucidate the DNA-Binding Activity of AlpZ, a Member of the Gamma-Butyrolactone Receptor Family in Streptomyces ambofaciens”

Molecular target: T1, AlpZ (Streptomyces ambofaciens) (UniProt Q6VMG9)
T1 sequence (looked up, limits assumed): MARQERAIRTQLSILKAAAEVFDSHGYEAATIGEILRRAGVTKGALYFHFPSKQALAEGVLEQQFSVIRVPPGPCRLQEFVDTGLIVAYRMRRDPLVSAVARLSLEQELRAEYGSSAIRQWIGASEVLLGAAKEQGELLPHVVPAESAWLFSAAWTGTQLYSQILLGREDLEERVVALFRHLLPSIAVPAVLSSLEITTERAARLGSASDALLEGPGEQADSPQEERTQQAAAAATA
Assay: switchSENSE
Settings: switchSENSE: PE40 pH 7.4 (10 mM Na phosphate, 40 mM NaCl, 0.05% Tween20, 50 uM EDTA, 50 uM EGTA), 30 C, recombinant protein, label: fluorescent nanolever on the switchSENSE chip

Measured: binding result

CTCACATTGACAAACCGACTGTGCTGTTTTTTTATCAGGGATCAGCGTTCGATGCTTCCGACTAATCAGCCATATCAGCTTACGACTA / CCCTGATAAAAAAACAGCACAGTCGGTTTGTCAATGTGAG [nanoAREV dsoverhang]
no binding: extract with signaling molecule 25 ug/ml, kOFF 1.04e-2 s-1, no protein bound after 5 min | extract with signaling molecule 50 ug/ml, kOFF 1.79e-2 s-1, no protein bound after 5 min | extract with signaling molecule 0.5 mg/ml added to complex, release, kOFF 1.95e-1 s-1

The exact form of at least one protein or probe is not confirmed. A negative result means that nothing was seen under these conditions. Tags and fusion partners may be left off the protein sequences shown.
